We go through 39 molecules from the supplement of paper PMC10735217.

SMILES strings stand for the structures. Counter-ions that a name gives are not always drawn. The list shows a part of the results. This data set is noisy: repeats of one test often differ as much as different tests do.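 The human kidney-derived cells carry a stably integrated construct of eight TEAD-binding elements driving luciferase, read by luminescence in a drug-repurposing library screen. A compound counts as a hit when its signal is more than five robust Z scores above the plate mean.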

For the assay, the system named is HEK293A TEAD-LUC reporter. The experiment in a line: TEAD-luciferase reporter activity (YAP activation), robust Z score vs plate; higher = stronger YAP/TEAD activation. Conditions: 24 h.

For `O=C1Nc2ccc(Cl)nc2C(c2ccccc2Cl)=NC1O` (configuration not stated), the TEAD-luciferase reporter activity runs as follows: (compound concentration: 200 nM) inactive: -0.584; (compound concentration: 2 uM) inactive: -1.65; (compound concentration: 10 uM) inactive: -0.91.
The corresponding values for `CN1OC2CCCC(=O)C2C1Cc1ccccc1` (configuration not stated) are inactive: -0.59, inactive: -0.496 and active: 13.3.
For `O=C(Nc1ccccc1-c1ccccc1)OC12CCN(CC1)CC2`, in that order: inactive: 1.13, inactive: -0.241 and inactive: -1.7.
Take `CCCCCCCCCCCCC/C=C/[C@@H](O)[C@@H](N)COP(=O)([O-])OCC[N+](C)(C)C` [Sphingosylphosphorylcholine]: the TEAD-luciferase reporter activity by setting is: (compound concentration: 200 nM) inactive: -0.869; (compound concentration: 2 uM) inactive: 0.245; (compound concentration: 10 uM) inactive: 1.58.
For `Cc1nn(C)c2c1C(c1ccccc1F)=NCC(=O)N2C` [Zolazepam HCl], in that order: inactive: 0.0189, inactive: -1.36 and inactive: 0.725.
For `COCCn1c(C)c(C)s/c1=N\C(=O)C1C(C)(C)C1(C)C`, in that order: inactive: -0.535, inactive: 0.114 and inactive: 0.367.
The corresponding values for `CCOP(=S)(OCC)Oc1ccc2c(C)cc(=O)oc2c1` are inactive: -1.51, inactive: -1.72 and inactive: 0.154.
As to `CC1=C(CO)C2=C(C)C3(CC3)C(C)(O)C(=O)C2=C1` (configuration not stated) [Irofulven], the TEAD-luciferase reporter activity was inactive: -1.55 (compound concentration: 200 nM), inactive: -1.87 (compound concentration: 2 uM) and inactive: -2.16 (compound concentration: 10 uM).
For `O=P(O)(O)C(O)P(=O)(O)O`, in that order: inactive: 0.444, inactive: -0.401 and inactive: 1.46.
For `CS(=O)(=O)OCCN(CCBr)c1c(C(=O)NCCOP(=O)(O)O)cc([N+](=O)[O-])cc1[N+](=O)[O-]`, in that order: inactive: -1.05, inactive: -1.19 and inactive: -1.26.
The corresponding values for `CC1=NC(=O)[C@](CCN(C(C)C)C(C)C)(c2ccccc2)[C@H]2CCCCN12` [Actisomide] are inactive: 0.103, inactive: 0.926 and inactive: 0.857.
For `Cc1cc(O)c2c(c1)OC(C)(C)C1=C2CC(C)CC1` (configuration not stated), the TEAD-luciferase reporter activity is, setting by setting: (compound concentration: 200 nM) inactive: -0.493; (compound concentration: 2 uM) inactive: -1.82; (compound concentration: 10 uM) inactive: 0.134.
For `C/C1=C/C(=O)O[C@@H]2C[C@@H](CC[C@H](C)/C=C\CC1)O[C@@](O)([C@@H]1CSC(=O)N1)C2` [Latrunculin B], in that order: inactive: -1.61, inactive: 1.27 and inactive: -1.4.
For `CC(=O)C[C@H]1CCCCN1`, in that order: inactive: -0.131, inactive: -2.25 and inactive: -1.77.
For `Oc1ccc(Cl)cc1`, in that order: inactive: 3.49, inactive: -1.33 and inactive: -0.99.
In the case of `CCNC(C)Cc1cccc(SC(F)(F)F)c1` (configuration not stated), the TEAD-luciferase reporter activity was inactive: -0.81 (compound concentration: 200 nM), inactive: 0.15 (compound concentration: 2 uM) and inactive: -0.929 (compound concentration: 10 uM).
For `CC(=O)N1C2CCC1CN(C(C)C)C2`, the TEAD-luciferase reporter activity (compound concentration: 200 nM) is inactive: -2.33 and the TEAD-luciferase reporter activity (compound concentration: 10 uM) is active: 5.68.
Take `O=C(O)COc1ccc(Cl)cc1` [metformin chlorphenoxyacetate]: the TEAD-luciferase reporter activity (compound concentration: 200 nM) is inactive: 1.12, the TEAD-luciferase reporter activity (compound concentration: 2 uM) was inactive: -1.52 and the TEAD-luciferase reporter activity (compound concentration: 10 uM) is inactive: 2.01.
With `COc1cc([C@@H]2c3cc4c(cc3[C@@H](O)[C@H]3COC(=O)[C@H]23)OCO4)cc(OC)c1O` [4-Demethylpodophyllotoxin], the TEAD-luciferase reporter activity (compound concentration: 2 uM) is inactive: -2.64.
`COc1cc([C@@H]2c3cc4c(cc3[C@@H](O)[C@H]3COC(=O)[C@H]23)OCO4)cc(OC)c1O`: the TEAD-luciferase reporter activity is, setting by setting: (compound concentration: 200 nM) inactive: -0.453; (compound concentration: 10 uM) inactive: 0.806.
For `Cc1cc(Nc2cc(N3CC(F)(C4CC4)C3)nc(O[C@H]3CCN(C(=O)c4cc(Cl)ccc4F)C3)n2)n[nH]1`, the TEAD-luciferase reporter activity reads like this: (compound concentration: 200 nM) inactive: -0.981; (compound concentration: 2 uM) inactive: -1.63; (compound concentration: 10 uM) inactive: 0.657.
For `CCCCC/C=C\C/C=C\C/C=C\C/C=C\CCCC(=O)NCc1ccc(O)c(OC)c1` [Arvanil], in that order: inactive: 0.537, inactive: 1.02 and inactive: -0.0198.
For `COCC(c1c(O)c2ccccc2oc1=O)c1c(O)c2ccccc2oc1=O`, in that order: inactive: -0.225, inactive: -2.01 and inactive: -0.208.
For `C[C@@H]1CNCCN1c1nccnc1OCCOc1cccnc1`, in that order: inactive: 0.519, inactive: -0.847 and inactive: 0.39.
With `CN(C)Cc1nc(-c2ncn3c2CN(C)C(=O)c2c(Cl)cccc2-3)no1`, the TEAD-luciferase reporter activity is inactive: -1.28 (compound concentration: 200 nM), inactive: -0.148 (compound concentration: 2 uM) and inactive: -0.468 (compound concentration: 10 uM).
As to `CC(C)C12C=CC(C)(CC1)OO2` (configuration not stated), the TEAD-luciferase reporter activity is, setting by setting: (compound concentration: 200 nM) inactive: 1.12; (compound concentration: 2 uM) inactive: -0.6; (compound concentration: 10 uM) inactive: -1.82.
For `c1cc(Cc2c[nH]cn2)ccn1` [Immethridine], in that order: inactive: -0.098, inactive: 0.252 and inactive: 0.22.
The corresponding values for `NC1C2C=CCC1c1ccc(Cl)cc1C2` (configuration not stated) are inactive: -0.505, inactive: 0.00791 and inactive: 2.56.
For `CC(C)(N)Cc1ccc(Cl)cc1`, in that order: inactive: -0.647, inactive: 0.368 and inactive: -1.49.
In the case of `O=P1(O)OP(=O)(O)[O][Pt]2([NH2+][C@@H]3CCCC[C@H]3[NH2+]2)[O]1` (some centres not stated), the TEAD-luciferase reporter activity is, setting by setting: (compound concentration: 200 nM) inactive: -0.579; (compound concentration: 2 uM) inactive: 0.607; (compound concentration: 10 uM) inactive: 3.16.
Regarding `CCCCCc1cc(O)c2c(c1)OC(C)(C)c1ccc(C)cc1-2` [Cannabinol], the TEAD-luciferase reporter activity was inactive: -0.25 (compound concentration: 200 nM), inactive: 0.114 (compound concentration: 2 uM) and inactive: 0.473 (compound concentration: 10 uM).
On to `CN(C)C1CC(c2ccccc2)c2ccccc21` (configuration not stated), for which the TEAD-luciferase reporter activity was inactive: 1.18 (compound concentration: 200 nM), inactive: -1.17 (compound concentration: 2 uM) and inactive: 3.19 (compound concentration: 10 uM).
Consider `CN1C(=O)N(c2ccc(C#N)c(C(F)(F)F)c2)C(=O)[C@@]1(CO)c1ccccc1`, for which the TEAD-luciferase reporter activity runs as follows: (compound concentration: 200 nM) inactive: 0.408; (compound concentration: 2 uM) inactive: -0.133; (compound concentration: 10 uM) inactive: -0.667.
For `COc1ccc(CN2CCNCC2)c(OC)c1OC` [Trimetazidine], in that order: inactive: 0.0308, inactive: -0.943 and inactive: -0.386.
For `C#CC(O)(/C=C/Cl)CC` (configuration not stated) [Ethchlorvynol], in that order: inactive: 2.11, inactive: -1.06 and inactive: -1.48.
For `CCCCCCC1(CC)C(=O)NC(=O)NC1=O`, in that order: inactive: -0.496, inactive: 0.00159 and inactive: 1.09.
Regarding `CN1C2CCC1CC(OC(=O)c1cc(Cl)cc(Cl)c1)C2` (configuration not stated) [Bemesetron], the TEAD-luciferase reporter activity reads like this: (compound concentration: 200 nM) inactive: 2.43; (compound concentration: 2 uM) inactive: -1.73.
With `CCOP(=S)(OCC)Oc1ccc2c(C)cc(=O)oc2c1C`, the TEAD-luciferase reporter activity by setting is: (compound concentration: 200 nM) inactive: -2.65; (compound concentration: 2 uM) inactive: -1.15; (compound concentration: 10 uM) inactive: 2.29.
In the case of `O=C(CCCN1CCC2(CC1)C(=O)NCN2c1ccccc1)c1ccc(F)cc1` [Spiroperidol], the TEAD-luciferase reporter activity was inactive: -0.695 (compound concentration: 200 nM), inactive: -1.21 (compound concentration: 2 uM) and inactive: -1.75 (compound concentration: 10 uM).
